The other results are listed elsewhere or left out. Further columns of the screen follow, without active or inactive calls. Compounds called inactive in the main read-out are mostly missing here. Words in brackets tell the shape of the fitted curve; partial curves, single points and poor fits give uncertain potencies.
Assay: qHTS Assay for Lipid Storage Modulators in Drosophila S3 Cells;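 on cell number change: cells counted by Cell Tracker Red CMTPX staining in the red channel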
Conditions: BODIPY lipid droplet fluorescence, 18-24 h; for cell number change: measured here: cell count max response, cells fed with added oleic acid
Procedure, shortened: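 Drosophila S3 cells got compounds at several concentrations plus oleic acid (400 uM solution). Laser-scanning cytometry with 488 nm excitation read lipid droplets at 500-530 nm and cells at 575-640 nm. Percent activity was relative to 20 uM Triacsin C.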

[1] = measured here: lipid fluorescence (Fed channel) AC50, cells fed with added oleic acid
[2] = measured here: cell number channel AC50, cells fed with added oleic acid

| Compound | AC50 [1] | cell number change | AC50 [2] |
| --- | --- | --- | --- |
| CCCc1cc(C(=O)NNC(=S)NCC)c2ccccc2n1 | 0.0651 µM [rising, full curve, poor fit] |  |  |
| CCOC(=O)CNC(=S)N1CCn2c(nc3ccccc32)C1 | 0.058 µM [falling, full curve, poor fit] | -13.2% | 0.092 µM [falling, full curve, poor fit] |
| N#CCCN(C(=O)CN1CCN(S(=O)(=O)c2ccc3c(c2)OCCO3)CC1)c1ccc(F)cc1 | 0.0651 µM [falling, full curve, poor fit] | 5.98% |  |
| COc1ccccc1C(=O)NCC(=O)NCc1cc(=O)n(C)c(=O)n1C |  | 19.5% |  |
| Cc1ccc2nc3c(c(C(=O)OCC(=O)N(C)C4CCS(=O)(=O)C4)c2c1)CCCC3 (configuration not stated) | 20.6 µM [rising, single point] | 25.9% |  |
| O=C(CNC(=O)c1ccc(Cl)cc1)OCCN1C(=O)c2ccccc2C1=O |  | 6.64% |  |
| Cc1cc(C)c(-c2cc(NC(=O)COC(=O)c3ccc(NC(=O)CC#N)cc3)n(-c3ccccc3)n2)cc1C |  | 5.86% |  |
| CCc1nc(SCC(=O)Nc2ccccc2OC)n[nH]1 | 0.398 µM [rising, single point] | -5.26% |  |
| Cc1sc2nc(C(C)C)oc(=O)c2c1C |  | -27% |  |
| CCC(Sc1nc(=O)cc(N)n1-c1ccccc1)C(=O)Nc1cc(C)on1 (configuration not stated) | 0.291 µM [falling, full curve, poor fit] | -10.7% |  |
| CC(C)C1Oc2ccccc2N(CC(=O)N(Cc2ccccn2)CC2CCCO2)C1=O (configuration not stated) |  | 5.36% |  |
| N#CCCN(C(=O)COC(=O)C1CCN(S(=O)(=O)c2ccc3c(c2)OCCO3)CC1)c1ccccc1 | 6.51 µM [falling, single point] | -12.8% |  |
| CCc1cccc(OCCCn2ccnc2)c1 |  | -83.3% | 5.17 µM [falling, partial curve] |
| CC(C)(C)c1cc(NC(=O)Nc2ccc(Cl)cc2Cl)no1 | 29.1 µM [falling, single point] | -38.7% | 29.1 µM [falling, single point] |
| COC(=O)CCN(C(=O)c1cccc([N+](=O)[O-])c1)c1ccccn1 |  | -14.5% | 0.517 µM [falling, single point] |
| O=S(=O)(c1ccc(Br)cc1)N1CCN(Cc2ccco2)CC1 | 29.1 µM [falling, single point] | -12.4% |  |
| Cc1ccc(OCC(=O)N(c2ccccn2)C2CCCCC2)c(C)c1 | 18.4 µM [rising, partial curve, poor fit] | 7.12% |  |
| CCOC(=O)CSCC(=O)Nc1ccc(S(=O)(=O)N2CCCCC2)cc1 | 32.6 µM [rising, single point] | -0.289% |  |

In a second layout: 2 of the compounds above.
Cc1ccc2nc3c(c(C(=O)OCC(=O)N(C)C4CCS(=O)(=O)C4)c2c1)CCCC3 (configuration not stated)
  AC50 [1]: 20.6 µM [rising, single point]; cell number change: 25.9%
CCOC(=O)CSCC(=O)Nc1ccc(S(=O)(=O)N2CCCCC2)cc1
  AC50 [1]: 32.6 µM [rising, single point]; cell number change: -0.289%

Source: PubChem BioAssay AID2685 (National Center for Advancing Translational Sciences (NCATS), 2010)
